For 51 molecules, TEAD-luciferase reporter activity results are on record in the supplement of paper PMC10735217.

Structures can show the parent of a compound that is named as a salt. This is one part of the list. This data set is noisy: repeats of one test often differ as much as different tests do.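 Human kidney-derived cells stably carry a construct in which eight TEAD-binding elements drive luciferase, measured by luminescence in a drug-repurposing library screen. A hit is any compound whose signal exceeds the plate mean by more than five robust Z scores.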

The test system of this experiment is HEK293A TEAD-LUC reporter. Description: TEAD-luciferase reporter activity (YAP activation), robust Z score vs plate; higher = stronger YAP/TEAD activation. To be noted: 24 h. In general terms: A reporter such as luciferase makes a cellular process visible.

Regarding `Cc1ccc(S(=O)(=O)NC(=O)NC2CCCCCCC2)cc1`, the TEAD-luciferase reporter activity was inactive: 0.00822 (compound concentration: 200 nM), inactive: -0.696 (compound concentration: 2 uM) and inactive: 0.709 (compound concentration: 10 uM).
On the same counts, the results for `CNC(=O)c1c(C)oc2cc(Oc3ncnc4cc(OC)c(OC)cc34)ccc12` [Fruquintinib] are inactive: -2.04, inactive: -1.98 and inactive: -1.31.
On the same counts, the results for `COC(=O)c1c(Cl)cccc1-c1ccc([C@@H](C)NC(=O)C2(NC(=O)C(F)(F)F)CC2)c(F)c1` are inactive: 0.386, inactive: -0.498 and inactive: 3.03.
On the same counts, the results for `[O]=[V+2]` [Vanadyl sulfate] are inactive: 1.19, inactive: -0.453 and inactive: -0.169.
As for `Cc1cc(C)n(O)c(=O)c1`, the TEAD-luciferase reporter activity runs as follows: (compound concentration: 200 nM) inactive: -0.0189; (compound concentration: 2 uM) inactive: -1.7; (compound concentration: 10 uM) inactive: 0.458.
For `COc1cc(C(O)CNC(C)CCn2cnc3ccccc32)ccc1O` (centres undefined), in that order: inactive: -0.151, inactive: -0.279 and inactive: -1.07.
On to `CC(=O)[C@]1(O)Cc2c(O)c3c(c(O)c2[C@@H](O[C@H]2C[C@H]([NH3+])[C@H](O)[C@H](C)O2)C1)C(=O)c1c(O)cccc1C3=O`, for which the TEAD-luciferase reporter activity by setting is: (compound concentration: 200 nM) inactive: -0.526; (compound concentration: 2 uM) inactive: -1.6; (compound concentration: 10 uM) active: 5.19.
On the same counts, the results for `O[C@@H]([C@H](O)[C@H](O)CBr)[C@H](O)CBr` [mitobronitol] are inactive: -0.685, inactive: -0.997 and inactive: 3.97.
For `Cc1c(Cc2ccccc2)nnc(N2CCN(c3cnc(C(C)(C)O)cn3)[C@H](C)C2)c1C`, the TEAD-luciferase reporter activity by setting is: (compound concentration: 200 nM) inactive: -0.699; (compound concentration: 2 uM) inactive: -1.17; (compound concentration: 10 uM) inactive: -0.515.
As to `CC1=C(C#N)[C@@H](c2ccc(C#N)cc2S(C)(=O)=O)N(C)C(=O)N1c1cccc(C(F)(F)F)c1`, the TEAD-luciferase reporter activity is, setting by setting: (compound concentration: 200 nM) inactive: -0.329; (compound concentration: 2 uM) inactive: -0.807; (compound concentration: 10 uM) inactive: 2.44.
For `CC1(C)O[C@H]2[C@@H]3OS(=O)(=O)O[C@@H]3CO[C@@]2(COS(N)(=O)=O)O1`, in that order: inactive: -0.451, inactive: -1.26 and inactive: -0.8.
For `Nc1nc(Cl)c2ncn(CCCCCB(O)O)c2n1`, in that order: inactive: -0.0233, inactive: -1.09 and inactive: 0.265.
For `Cc1cc(C)c(/C=C2\C(=O)Nc3ccc(Cl)cc32)[nH]1`, the TEAD-luciferase reporter activity (compound concentration: 200 nM) is inactive: -0.619, the TEAD-luciferase reporter activity (compound concentration: 2 uM) is inactive: 1.42 and the TEAD-luciferase reporter activity (compound concentration: 10 uM) was inactive: -0.103.
Turning to `CN1C[C@@H]2c3ccccc3Oc3ccc(Cl)cc3[C@H]2C1` [Asenapine maleate], the TEAD-luciferase reporter activity is, setting by setting: (compound concentration: 200 nM) inactive: -0.265; (compound concentration: 2 uM) inactive: -1.19; (compound concentration: 10 uM) inactive: 1.07.
Turning to `Cc1sc[n+](CC(=O)c2ccccc2)c1C` [Alagebrium chloride], the TEAD-luciferase reporter activity is inactive: -0.788 (compound concentration: 200 nM), inactive: -1.19 (compound concentration: 2 uM) and inactive: 0.153 (compound concentration: 10 uM).
For `CC[C@@]1(O)C(=O)OCc2c1cc1n(c2=O)Cc2cc3c(N)cccc3nc2-1`, in that order: inactive: 1.56, inactive: -1.88 and inactive: -2.29.
For `O=C(O)CO` [glycolic acid], in that order: inactive: -0.198, inactive: 0.0144 and inactive: 0.669.
For `C[C@@H](n1cnc2cc(Cl)ccc2c1=O)[C@](O)(Cn1cncn1)c1ccc(F)cc1F` [albaconazole], in that order: inactive: -1.11, inactive: 1.95 and inactive: 0.605.
On to `CCN(CC)CCOc1ccc(Cc2ccccc2)cc1` [Tesmilifene], for which the TEAD-luciferase reporter activity was inactive: -1.18 (compound concentration: 200 nM) and inactive: -0.961 (compound concentration: 10 uM).
As for `CCN(CC)CCOc1ccc(Cc2ccccc2)cc1` [tesmilifene hydrochloride], the TEAD-luciferase reporter activity (compound concentration: 2 uM) is inactive: -0.291.
`CN(C)C(=O)c1cc(CC(=O)O)ccc1NC(=O)c1ccccc1-c1ccc(C(F)(F)F)cc1` [granotapide metabolite]: the TEAD-luciferase reporter activity by setting is: (compound concentration: 200 nM) inactive: -0.343; (compound concentration: 2 uM) inactive: -0.456; (compound concentration: 10 uM) inactive: 0.47.
For `CN(C)CCNc1nccc(NCc2ccc(CNc3nc(Cl)ncc3F)cc2)n1`, in that order: inactive: 4, inactive: -0.174 and inactive: 3.51.
Turning to `O=C1c2ccccc2CCC1CNCCc1ccc(O)cc1` (centres undefined), the TEAD-luciferase reporter activity (compound concentration: 200 nM) was inactive: -1.58, the TEAD-luciferase reporter activity (compound concentration: 2 uM) is inactive: -0.524 and the TEAD-luciferase reporter activity (compound concentration: 10 uM) was inactive: -1.19.
For `COC(=O)[C@H]1[C@H]2C[C@@H]3c4[nH]c5cc(OC)ccc5c4CCN3C[C@H]2C[C@@H](OC(=O)/C=C/c2cc(OC)c(OC)c(OC)c2)[C@@H]1OC`, in that order: inactive: 0.0935, inactive: -0.0876 and inactive: 2.97.
For the molecule `CCCn1c(=O)c2nc(-c3cnn(Cc4cccc(C(F)(F)F)c4)c3)[nH]c2n(CCC)c1=O`, the TEAD-luciferase reporter activity is, setting by setting: (compound concentration: 200 nM) inactive: -0.676; (compound concentration: 2 uM) inactive: -0.769; (compound concentration: 10 uM) inactive: 1.51.
For `COC(c1ccccc1)(c1ccccc1)[C@H](Oc1nc(C)cc(C)n1)C(=O)O` [ambrisentan], in that order: inactive: -1.84, inactive: 0.116 and inactive: -0.131.
For `C[C@H]1[C@@H](O)O[C@@H]2OC3(C)CC[C@H]4[C@H](C)CC[C@@H]1[C@]24OO3` [Artenimol], in that order: inactive: 1.54, inactive: 0.849 and inactive: -1.71.
Regarding `COc1ccc(-c2ccc(Cn3c(CC(C)(C)C(=O)[O-])c(SC(C)(C)C)c4cc(OCc5ccccn5)ccc43)cc2)cn1`, the TEAD-luciferase reporter activity is, setting by setting: (compound concentration: 200 nM) inactive: 0.556; (compound concentration: 2 uM) inactive: -0.415; (compound concentration: 10 uM) inactive: -0.407.
For `O[C@@H](COc1cccc2ncccc12)CN1CCN([C@@H]2c3ccccc3[C@@H]3[C@H](c4ccccc42)C3(F)F)CC1` [Zosuquidar trihydrochloride], in that order: inactive: -1.33, inactive: 0.097 and inactive: 1.8.
On the same counts, the results for `CC(O)CC(C)(C)O` (centres undefined) are inactive: -0.0681, inactive: -0.697 and inactive: -0.288.
`O=C(CCCN1CCN2Cc3[nH]c4ccccc4c3CC2C1)c1ccc(F)cc1` (centres undefined) [Biriperone]: the TEAD-luciferase reporter activity runs as follows: (compound concentration: 200 nM) inactive: -1.44; (compound concentration: 2 uM) inactive: -0.697; (compound concentration: 10 uM) inactive: 3.01.
For `O=C(c1ccccc1)N1CCN=C1Nc1c(Cl)cccc1Cl` [benclonidine], in that order: inactive: 0.534, inactive: -2.27 and inactive: 0.921.
On the same counts, the results for `COC(=O)[C@H]1CC[C@H]2[C@@H]3CC[C@H]4N(C)C(=O)CC[C@]4(C)[C@H]3CC[C@]12C` are inactive: -0.917, inactive: 0.3 and inactive: -0.75.
On the same counts, the results for `Cc1c(-c2ccc(O)cc2)n(Cc2ccc(OCCN3CCCCC3)cc2)c2ccc(O)cc12` are inactive: -2.02, inactive: 0.199 and inactive: -0.321.
`CN1CCC2(CC1)CC(NC(=O)Nc1cccc3ccccc13)c1ccccc1O2` (centres undefined): the TEAD-luciferase reporter activity runs as follows: (compound concentration: 200 nM) inactive: 1.39; (compound concentration: 2 uM) inactive: 0.0367; (compound concentration: 10 uM) active: 5.05.
Consider `CN(C)C(c1cccc(O)c1)C1CCCCC1O` (centres undefined) [ciramadol], for which the TEAD-luciferase reporter activity by setting is: (compound concentration: 200 nM) inactive: 0.465; (compound concentration: 2 uM) inactive: -1.37; (compound concentration: 10 uM) inactive: -1.71.
On the same counts, the results for `COCCCC/C(=N/OCCN)c1ccc(Cl)cc1` [Clovoxamine] are inactive: 0.0135, inactive: 0.648 and inactive: 1.46.
For `Cc1sc(NC(=O)C2CCCCC2C(=O)O)nc1-c1ccc(F)cc1` (centres undefined), in that order: inactive: -0.417, inactive: -0.876 and inactive: 2.07.
On the same counts, the results for `NCCCC[C@H](NC(=O)[C@@H]1CCCN1C(=O)[C@@H]1CSSC[C@H](N)C(=O)N[C@@H](Cc2ccc(O)cc2)C(=O)N[C@@H](Cc2ccccc2)C(=O)N[C@@H](CCC(N)=O)C(=O)N[C@@H](CC(N)=O)C(=O)N1)C(=O)NCC(N)=O` [Lypressin] are inactive: -0.0514, inactive: 0.67 and inactive: 0.148.
For the molecule `Cc1ccc(C(=O)Nc2cccc(C(F)(F)F)c2)cc1NC(=O)c1cccc2c(N)nccc12`, the TEAD-luciferase reporter activity is inactive: -0.618 (compound concentration: 200 nM), inactive: -0.838 (compound concentration: 2 uM) and inactive: 2.74 (compound concentration: 10 uM).
For `C[C@]12C=CC(=O)N[C@@H]1CC[C@@H]1[C@@H]2CC[C@]2(C)[C@@H](C(=O)c3ccccc3)CC[C@@H]12`, in that order: inactive: -0.157, inactive: -0.279 and inactive: -0.702.
For `COCCCN1CCC(NC(=O)c2cc(Cl)c(N)c3c2OCC3)CC1` [prucalopride succinate (IV)], in that order: inactive: -1.03, inactive: -0.448 and inactive: -0.13.
On the same counts, the results for `COc1ccc(N(C)c2nc(C)nc3ccccc23)cc1` [verubulin] are active: 8.19, active: 9.05 and active: 7.22.
Turning to `COc1ccc2c(c1)c(CC(=O)OCCSCC(=O)NCCCOc1cccc(CN3CCCCC3)c1)c(C)n2C(=O)c1ccc(Cl)cc1`, the TEAD-luciferase reporter activity reads like this: (compound concentration: 200 nM) inactive: 2.58; (compound concentration: 2 uM) inactive: 1.57; (compound concentration: 10 uM) inactive: 0.772.
`COc1cccc(N(C)C(=S)Oc2ccc3c(c2)CCCC3)n1` [Liranaftate]: the TEAD-luciferase reporter activity was inactive: -0.795 (compound concentration: 200 nM) and inactive: -0.672 (compound concentration: 10 uM).
As to `COc1cccc(N(C)C(=S)Oc2ccc3c(c2)CCCC3)n1` [liranaftate], under “compound concentration: 2 uM”, the TEAD-luciferase reporter activity was inactive: 0.472.
The same measure, in the same setting: for `CC(=O)NC1C(O)OC(COS(=O)(=O)O)C(OC2OC(C(=O)O)C(OC3OC(CO)C(OC4OC(C(=O)O)C(O)C(O)C4OS(=O)(=O)O)C(OS(=O)(=O)O)C3NS(=O)(=O)O)C(O)C2OS(=O)(=O)O)C1O` (centres undefined) [Enoxaparin sodium] the value was inactive: -0.319.
Turning to `COc1ccccc1Oc1c(NS(=O)(=O)c2ccc(C)cn2)nc(-c2ccnc(-c3nnn[nH]3)c2)nc1OCCO` [Clazosentan sodium], the TEAD-luciferase reporter activity reads like this: (compound concentration: 200 nM) inactive: 0.177; (compound concentration: 2 uM) inactive: -1.62; (compound concentration: 10 uM) inactive: -1.35.
As to `C[C@@H]1CN(c2c(F)cc3c(=O)c(C(=O)O)cn(C4COC4)c3c2Cl)C[C@@H]1N`, the TEAD-luciferase reporter activity reads like this: (compound concentration: 200 nM) inactive: -0.387; (compound concentration: 2 uM) inactive: -1.52; (compound concentration: 10 uM) inactive: -0.435.
As to `O=S(=O)(O)c1cc2c(O)c(c1)Cc1cc(S(=O)(=O)O)cc(c1O)Cc1cc(S(=O)(=O)O)cc(c1O)Cc1cc(S(=O)(=O)O)cc(c1O)Cc1cc(S(=O)(=O)O)cc(c1O)Cc1cc(S(=O)(=O)O)cc(c1O)C2`, the TEAD-luciferase reporter activity was inactive: 0.0944 (compound concentration: 200 nM), inactive: 0.305 (compound concentration: 2 uM) and inactive: -1.73 (compound concentration: 10 uM).
As for `CN(C)C(=O)NC1CC2(CCN(C(=O)c3c[nH]c4ccccc34)CC2)Oc2ccccc21` (centres undefined), the TEAD-luciferase reporter activity is, setting by setting: (compound concentration: 200 nM) inactive: -1.53; (compound concentration: 10 uM) inactive: -1.28.
